Data as given in PubChem BioAssay AID652272 (Drosophila RNAi Screening Center, 2013)

Test: 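Genes whose knock-down decreases or increases Hedgehog reporter output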 (primary screen)
Cell system: Drosophila clone 8 (Cl8) cells
Knock-down reagent: long dsRNA against Drosophila genes
Measured: 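Firefly light from a Hedgehog-responsive ptc promoter reporter and Renilla reference light, both read on a plate reader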
Reading the numbers: firefly Hh reporter signal: higher = more ptc reporter light; Renilla reference signal: higher = more Renilla control light
Active means: 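Hit when the z-score averaged over two replicates is under -2 or over +3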
Calls: active = hit: reporter lowered or raised; inactive = not a hit
The screen tested about 21,000 reagents; below is an unselected part of those with a known target gene and a result. Over the whole deposit, 503 (2.4%) were called active. 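Raw plate light values, not normalised; calls rest on replicate z-scores that were not deposited; hits include reporter decreases as well as increases.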 The record does not give: the amount of reagent, the time to read-out.

CG43867 [DRSC17582] — firefly Hh reporter signal, replicate 1: 4.06e5; firefly Hh reporter signal, replicate 2: 1.72e5; Renilla reference signal, replicate 1: 18896; Renilla reference signal, replicate 2: 3330; Outcome: inactive
CG43867 [DRSC17836] — firefly Hh reporter signal, replicate 1: 86185; firefly Hh reporter signal, replicate 2: 1.65e5; Renilla reference signal, replicate 1: 3505; Renilla reference signal, replicate 2: 6043; Outcome: inactive
CG43867 [DRSC17837] — firefly Hh reporter signal, replicate 1: 80864; firefly Hh reporter signal, replicate 2: 2.21e5; Renilla reference signal, replicate 1: 3273; Renilla reference signal, replicate 2: 7732; Outcome: inactive
CG43867 [DRSC17942] — firefly Hh reporter signal, replicate 1: 1.08e5; firefly Hh reporter signal, replicate 2: 2.93e5; Renilla reference signal, replicate 1: 3573; Renilla reference signal, replicate 2: 12044; Outcome: inactive
CG43867 [DRSC17943] — firefly Hh reporter signal, replicate 1: 91589; firefly Hh reporter signal, replicate 2: 1.63e5; Renilla reference signal, replicate 1: 3057; Renilla reference signal, replicate 2: 7194; Outcome: inactive
lilli [DRSC00708] — firefly Hh reporter signal, replicate 1: 72624; firefly Hh reporter signal, replicate 2: 6.85e5; firefly Hh reporter signal, replicate 3: 76869; Renilla reference signal, replicate 1: 3085; Renilla reference signal, replicate 2: 34520; Outcome: inactive
CG31952 [DRSC00428] — firefly Hh reporter signal, replicate 1: 1.51e5; firefly Hh reporter signal, replicate 2: 1.45e5; Renilla reference signal, replicate 1: 3229; Renilla reference signal, replicate 2: 9984; Outcome: inactive
CG11403 [DRSC18532] — firefly Hh reporter signal, replicate 1: 94080; firefly Hh reporter signal, replicate 2: 73729; Renilla reference signal, replicate 1: 1264; Renilla reference signal, replicate 2: 2544; Outcome: inactive

Ordered by “Renilla reference signal, replicate 1” (lowest first): 2 of the entries above
lilli [DRSC00708] — firefly Hh reporter signal, replicate 1: 72624; firefly Hh reporter signal, replicate 2: 6.85e5; firefly Hh reporter signal, replicate 3: 76869; Renilla reference signal, replicate 1: 3085; Renilla reference signal, replicate 2: 34520; Outcome: inactive
CG31952 [DRSC00428] — firefly Hh reporter signal, replicate 1: 1.51e5; firefly Hh reporter signal, replicate 2: 1.45e5; Renilla reference signal, replicate 1: 3229; Renilla reference signal, replicate 2: 9984; Outcome: inactive

More records:
tbrd-2 [DRSC07020] — firefly Hh reporter signal, replicate 1: 62121; firefly Hh reporter signal, replicate 2: 66118; Renilla reference signal, replicate 1: 1645; Renilla reference signal, replicate 2: 4233; Outcome: inactive
CG31031 (retired record) [DRSC13964] — firefly Hh reporter signal, replicate 1: 54560; firefly Hh reporter signal, replicate 2: 2.93e5; Renilla reference signal, replicate 1: 13216; Renilla reference signal, replicate 2: 5933; Outcome: inactive
CG4751 [DRSC02776] — firefly Hh reporter signal, replicate 1: 47066; firefly Hh reporter signal, replicate 2: 40352; Renilla reference signal, replicate 1: 2711; Renilla reference signal, replicate 2: 1936; Outcome: inactive
CG42808 [DRSC06370] — firefly Hh reporter signal, replicate 1: 1.11e5; firefly Hh reporter signal, replicate 2: 58884; Renilla reference signal, replicate 1: 4313; Renilla reference signal, replicate 2: 2786; Outcome: inactive
